Source: PubChem BioAssay AID248 (DTP/NCI, 2004)
The list does not hold the whole screen: it gathers tests that were run many times, whatever their T/C, doses with no T/C, and many T/C values between a quarter and a half above the control. Further doses and runs are listed elsewhere. T/C is the treated group as % of the vehicle group. Some entries give survivors of the animals treated and no T/C: the source holds a T/C of zero for them, seemingly a mark for toxic or unscored doses. Some survivor counts are full or nearly so, which does not show that the dose was tolerated: survival well below the control is almost never listed, so the zero probably covers shortened survival too. Counts of survivors are from the toxicity check (mostly the fifth day) where no day follows; animals may have died later. Schedules are NCI's codes, read here as Q, the interval in days (D) or hours (H), X, the number of doses. Where survival is the endpoint, this PubChem deposit counts one and a half times the control or more as active, and values a quarter to a half above the control carry no call in these data; other NCI protocols may use other cut-offs. Some T/C values are followed by the survivors on the day toxicity was checked, most often the fifth; without a count, all were alive then. Some doses were run more than once; the results are listed from low to high. Marks such as (2×) say how often a value occurs here.

System: L1210 leukemia ip in BDF1 mice, survival T/C
Assay: NCI In Vivo Anticancer Drug Screen. Data for tumor model L1210 Leukemia (intraperitoneal) in B6D2F1 (BDF1) mice
Details: T/C endpoint: median survival time, higher T/C = longer survival
[1] = dose: 128.0 mg/kg/injection, schedule: Q01DX009 (oral), vehicle: saline with Tween-80

`CC(CN1CC(=O)NC(=O)C1)N1CC(=O)NC(=O)C1` (stereo unspecified) was tested, and the T/C (dose: 64.0 mg/kg/injection, schedule: Q04DX003 (ip), vehicle: saline with Tween-80) was 129 % of control, the T/C (dose: 64.0 mg/kg/injection, schedule: Q04DX003 (sc), vehicle: saline with Tween-80) was 129 % of control and the survivor count (dose: 75.0 mg/kg/injection, schedule: Q03HX024 (ip), vehicle: Klucel (hydroxypropylcellulose) (HPC)) was 8 of 8. For the same molecule, the T/C (dose: 100.0 mg/kg/injection, schedule: Q01DX001 (ip), vehicle: Klucel (hydroxypropylcellulose) (HPC), evaluated on day 5) was 110 (2×), 113, 116, 118, 122 % of control, the T/C (dose: 100.0 mg/kg/injection, schedule: Q01DX001 (ip), vehicle: Klucel (hydroxypropylcellulose) (HPC), evaluated on day 30) was 111 (2×) and 125 % of control and the T/C (dose: 100.0 mg/kg/injection, schedule: Q01DX001 (ip), vehicle: Klucel (hydroxypropylcellulose) (HPC), evaluated on day 60) was 111 % of control. The T/C (dose: 100.0 mg/kg/injection, schedule: Q01DX001 (ip), vehicle: Klucel (hydroxypropylcellulose) (HPC), evaluated on day 75) was 122 % of control, the T/C (dose: 100.0 mg/kg/injection, schedule: Q01DX001 (ip), vehicle: other) was 147 % of control and the T/C (dose: 100.0 mg/kg/injection, schedule: Q01DX001 (ip), vehicle: steroid suspending solution) was 138 % of control. The T/C (dose: 100.0 mg/kg/injection, schedule: Q04DX003 (ip), vehicle: Klucel (hydroxypropylcellulose) (HPC), evaluated on day 5) was 102, 111, 112, 114, 122, 125, 139, 141, 145, 149, 182 % of control, the T/C (dose: 100.0 mg/kg/injection, schedule: Q04DX003 (ip), vehicle: Klucel (hydroxypropylcellulose) (HPC), evaluated on day 7) was 99 and 117 % of control and the T/C (dose: 100.0 mg/kg/injection, schedule: Q04DX003 (ip), vehicle: Klucel (hydroxypropylcellulose) (HPC), evaluated on day 30) was 100 [7 of 8 alive] and 139 % of control. The T/C (dose: 100.0 mg/kg/injection, schedule: Q04DX003 (ip), vehicle: Klucel (hydroxypropylcellulose) (HPC), evaluated on day 32) was 120 % of control, the T/C (dose: 100.0 mg/kg/injection, schedule: Q04DX003 (ip), vehicle: Klucel (hydroxypropylcellulose) (HPC), evaluated on day 46) was 105 % of control and the T/C (dose: 100.0 mg/kg/injection, schedule: Q04DX003 (ip), vehicle: Klucel (hydroxypropylcellulose) (HPC), evaluated on day 50) was 112 % of control. The T/C (dose: 100.0 mg/kg/injection, schedule: Q04DX003 (ip), vehicle: Klucel (hydroxypropylcellulose) (HPC), evaluated on day 54) was 144 % of control, the T/C (dose: 100.0 mg/kg/injection, schedule: Q04DX003 (ip), vehicle: Klucel (hydroxypropylcellulose) (HPC), evaluated on day 60) was 110, 111, 125, 133, 183 % of control [7 of 8 alive] and the T/C (dose: 100.0 mg/kg/injection, schedule: Q04DX003 (ip), vehicle: Klucel (hydroxypropylcellulose) (HPC), evaluated on day 75) was 144 % of control. For the same molecule, the T/C (dose: 108.0 mg/kg/injection, schedule: Q04DX003 (ip), vehicle: Klucel (hydroxypropylcellulose) (HPC), evaluated on day 5) was 114, 115, 131 % of control, the T/C (dose: 108.0 mg/kg/injection, schedule: Q04DX003 (ip), vehicle: Klucel (hydroxypropylcellulose) (HPC), evaluated on day 7) was 114 % of control and the T/C (dose: 108.0 mg/kg/injection, schedule: Q04DX003 (ip), vehicle: Klucel (hydroxypropylcellulose) (HPC), evaluated on day 24) was 116 % of control. For the same molecule, the T/C (dose: 108.0 mg/kg/injection, schedule: Q04DX003 (ip), vehicle: Klucel (hydroxypropylcellulose) (HPC), evaluated on day 27) was 133 % of control, the T/C (dose: 108.0 mg/kg/injection, schedule: Q04DX003 (ip), vehicle: Klucel (hydroxypropylcellulose) (HPC), evaluated on day 30) was 110 % of control and the T/C (dose: 108.0 mg/kg/injection, schedule: Q04DX003 (ip), vehicle: Klucel (hydroxypropylcellulose) (HPC), evaluated on day 33) was 122 % of control. For the same molecule, the T/C (dose: 108.0 mg/kg/injection, schedule: Q04DX003 (ip), vehicle: Klucel (hydroxypropylcellulose) (HPC), evaluated on day 34) was 131 % of control, the T/C (dose: 108.0 mg/kg/injection, schedule: Q04DX003 (ip), vehicle: Klucel (hydroxypropylcellulose) (HPC), evaluated on day 46) was 111 % of control and the T/C [1] was 87 and 92 % of control. The survivor count [1] was 10 of 10, the survivor count (dose: 128.0 mg/kg/injection, schedule: Q03HX008 (ip), vehicle: saline with Tween-80) was 7 of 10 and the survivor count (dose: 128.0 mg/kg/injection, schedule: Q03HX016 (ip), vehicle: saline with Tween-80) was 8 of 10. The survivor count (dose: 128.0 mg/kg/injection, schedule: Q03HX024 (ip), vehicle: saline with Tween-80) was 9 of 10.
